Test results from the supplement of paper PMC10849652.
The other results are listed elsewhere or left out.

Sequences of proteins named here, by UniProt entry; tags and fusion partners are left off. A change or cut given only in a name is not applied to a line headed by its entry.
UniProt Q66K74: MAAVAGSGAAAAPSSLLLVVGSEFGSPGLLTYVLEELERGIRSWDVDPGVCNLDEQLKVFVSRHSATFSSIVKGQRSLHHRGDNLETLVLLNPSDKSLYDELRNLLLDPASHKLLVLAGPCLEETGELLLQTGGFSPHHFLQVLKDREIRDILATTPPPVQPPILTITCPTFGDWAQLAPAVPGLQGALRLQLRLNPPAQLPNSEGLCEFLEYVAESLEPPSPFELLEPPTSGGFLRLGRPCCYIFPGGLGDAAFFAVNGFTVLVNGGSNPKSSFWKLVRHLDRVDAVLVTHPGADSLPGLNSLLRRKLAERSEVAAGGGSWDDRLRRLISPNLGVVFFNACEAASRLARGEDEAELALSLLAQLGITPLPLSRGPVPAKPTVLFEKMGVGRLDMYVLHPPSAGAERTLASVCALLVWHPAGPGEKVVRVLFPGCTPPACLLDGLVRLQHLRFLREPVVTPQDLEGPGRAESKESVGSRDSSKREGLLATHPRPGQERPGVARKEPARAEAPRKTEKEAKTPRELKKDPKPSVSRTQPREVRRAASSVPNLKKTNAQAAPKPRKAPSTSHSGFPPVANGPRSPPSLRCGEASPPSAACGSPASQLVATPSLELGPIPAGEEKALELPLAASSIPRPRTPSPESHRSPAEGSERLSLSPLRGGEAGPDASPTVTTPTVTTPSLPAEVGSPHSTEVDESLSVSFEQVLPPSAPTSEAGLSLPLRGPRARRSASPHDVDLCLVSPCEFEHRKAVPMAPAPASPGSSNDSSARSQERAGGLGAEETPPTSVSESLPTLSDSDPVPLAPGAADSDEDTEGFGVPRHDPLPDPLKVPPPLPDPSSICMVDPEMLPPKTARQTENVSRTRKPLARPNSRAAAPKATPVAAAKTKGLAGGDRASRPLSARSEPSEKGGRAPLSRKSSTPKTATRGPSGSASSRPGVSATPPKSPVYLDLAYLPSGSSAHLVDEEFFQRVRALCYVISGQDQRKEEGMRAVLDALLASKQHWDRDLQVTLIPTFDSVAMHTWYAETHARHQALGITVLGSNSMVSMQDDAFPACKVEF
UniProt Q16539, whole entry, looked up: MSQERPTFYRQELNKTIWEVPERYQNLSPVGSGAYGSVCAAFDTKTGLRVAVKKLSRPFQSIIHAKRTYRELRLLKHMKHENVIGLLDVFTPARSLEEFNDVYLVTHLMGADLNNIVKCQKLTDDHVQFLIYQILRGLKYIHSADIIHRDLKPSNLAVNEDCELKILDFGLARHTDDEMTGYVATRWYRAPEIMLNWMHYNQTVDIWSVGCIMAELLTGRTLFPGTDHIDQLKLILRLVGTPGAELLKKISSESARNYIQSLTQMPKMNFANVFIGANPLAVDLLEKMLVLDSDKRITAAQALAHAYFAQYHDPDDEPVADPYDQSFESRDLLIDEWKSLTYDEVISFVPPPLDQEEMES
UniProt Q8WWC4: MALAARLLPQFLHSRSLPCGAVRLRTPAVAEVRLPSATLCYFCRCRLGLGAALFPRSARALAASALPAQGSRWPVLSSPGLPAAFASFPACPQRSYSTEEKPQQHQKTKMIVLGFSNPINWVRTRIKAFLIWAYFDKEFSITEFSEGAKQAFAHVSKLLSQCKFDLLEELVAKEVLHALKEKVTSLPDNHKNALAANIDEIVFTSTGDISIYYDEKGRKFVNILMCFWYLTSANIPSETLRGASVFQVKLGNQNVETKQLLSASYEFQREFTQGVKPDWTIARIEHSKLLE
UniProt Q3KQU3: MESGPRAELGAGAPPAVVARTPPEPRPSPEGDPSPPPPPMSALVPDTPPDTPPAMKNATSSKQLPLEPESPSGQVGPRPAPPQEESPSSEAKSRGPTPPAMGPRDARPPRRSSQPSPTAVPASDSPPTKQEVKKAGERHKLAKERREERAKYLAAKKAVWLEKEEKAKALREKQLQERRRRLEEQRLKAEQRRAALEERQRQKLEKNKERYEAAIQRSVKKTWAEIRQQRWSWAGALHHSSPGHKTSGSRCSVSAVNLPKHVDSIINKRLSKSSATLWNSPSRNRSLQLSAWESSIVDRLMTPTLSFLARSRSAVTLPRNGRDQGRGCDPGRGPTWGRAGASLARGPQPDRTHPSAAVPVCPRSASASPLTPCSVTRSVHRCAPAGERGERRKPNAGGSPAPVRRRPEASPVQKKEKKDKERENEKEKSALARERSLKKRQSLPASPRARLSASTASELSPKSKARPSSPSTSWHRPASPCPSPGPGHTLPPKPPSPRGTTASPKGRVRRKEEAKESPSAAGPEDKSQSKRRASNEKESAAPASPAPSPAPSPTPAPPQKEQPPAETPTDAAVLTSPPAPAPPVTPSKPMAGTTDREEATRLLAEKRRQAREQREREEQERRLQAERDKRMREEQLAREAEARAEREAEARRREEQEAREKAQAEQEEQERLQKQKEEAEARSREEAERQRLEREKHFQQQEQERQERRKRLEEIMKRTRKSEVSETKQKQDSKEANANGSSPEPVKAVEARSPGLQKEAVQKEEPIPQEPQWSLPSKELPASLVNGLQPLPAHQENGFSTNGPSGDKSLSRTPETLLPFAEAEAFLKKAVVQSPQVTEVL
UniProt P31153, whole entry, looked up: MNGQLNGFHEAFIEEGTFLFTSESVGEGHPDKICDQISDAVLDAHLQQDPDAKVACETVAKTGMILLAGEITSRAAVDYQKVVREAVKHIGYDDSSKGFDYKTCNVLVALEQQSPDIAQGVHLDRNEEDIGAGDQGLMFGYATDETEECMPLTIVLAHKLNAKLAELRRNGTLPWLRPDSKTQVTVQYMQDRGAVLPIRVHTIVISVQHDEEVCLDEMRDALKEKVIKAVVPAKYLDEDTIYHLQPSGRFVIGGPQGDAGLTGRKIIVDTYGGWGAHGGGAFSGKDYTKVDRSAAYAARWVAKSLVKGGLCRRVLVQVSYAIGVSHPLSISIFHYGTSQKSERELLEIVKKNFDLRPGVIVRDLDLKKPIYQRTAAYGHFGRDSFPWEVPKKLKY
UniProt Q96S90: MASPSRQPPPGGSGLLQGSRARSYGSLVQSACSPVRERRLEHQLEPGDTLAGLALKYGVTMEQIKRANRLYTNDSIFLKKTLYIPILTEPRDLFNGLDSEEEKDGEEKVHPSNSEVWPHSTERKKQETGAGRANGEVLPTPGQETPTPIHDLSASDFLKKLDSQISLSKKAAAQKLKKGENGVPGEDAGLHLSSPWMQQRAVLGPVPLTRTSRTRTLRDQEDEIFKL
UniProt Q8WVR3: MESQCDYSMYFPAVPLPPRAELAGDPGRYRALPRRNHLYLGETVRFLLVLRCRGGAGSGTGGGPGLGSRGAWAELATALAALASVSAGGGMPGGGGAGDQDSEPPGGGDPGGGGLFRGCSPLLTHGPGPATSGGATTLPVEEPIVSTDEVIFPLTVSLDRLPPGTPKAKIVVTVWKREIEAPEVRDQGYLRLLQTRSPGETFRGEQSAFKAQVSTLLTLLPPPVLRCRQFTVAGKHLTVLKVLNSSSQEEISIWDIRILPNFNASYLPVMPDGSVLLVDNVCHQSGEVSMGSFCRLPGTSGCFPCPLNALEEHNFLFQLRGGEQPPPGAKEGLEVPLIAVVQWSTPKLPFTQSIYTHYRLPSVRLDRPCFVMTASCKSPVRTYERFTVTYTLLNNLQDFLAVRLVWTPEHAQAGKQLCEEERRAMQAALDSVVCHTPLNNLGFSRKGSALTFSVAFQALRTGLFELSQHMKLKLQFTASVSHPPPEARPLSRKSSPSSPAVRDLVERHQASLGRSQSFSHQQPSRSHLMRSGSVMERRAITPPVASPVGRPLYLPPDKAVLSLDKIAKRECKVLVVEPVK
UniProt P45985: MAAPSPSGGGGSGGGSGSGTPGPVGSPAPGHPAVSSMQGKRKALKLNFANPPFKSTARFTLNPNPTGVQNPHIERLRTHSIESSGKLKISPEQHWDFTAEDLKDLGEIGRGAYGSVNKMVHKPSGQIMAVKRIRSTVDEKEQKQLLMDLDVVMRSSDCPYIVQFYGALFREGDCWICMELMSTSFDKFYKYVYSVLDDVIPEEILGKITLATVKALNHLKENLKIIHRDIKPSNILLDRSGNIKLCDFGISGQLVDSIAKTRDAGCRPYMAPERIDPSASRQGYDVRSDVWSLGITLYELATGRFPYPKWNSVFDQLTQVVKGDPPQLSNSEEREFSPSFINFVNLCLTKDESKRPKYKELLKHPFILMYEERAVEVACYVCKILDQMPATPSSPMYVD
UniProt Q9NQ48: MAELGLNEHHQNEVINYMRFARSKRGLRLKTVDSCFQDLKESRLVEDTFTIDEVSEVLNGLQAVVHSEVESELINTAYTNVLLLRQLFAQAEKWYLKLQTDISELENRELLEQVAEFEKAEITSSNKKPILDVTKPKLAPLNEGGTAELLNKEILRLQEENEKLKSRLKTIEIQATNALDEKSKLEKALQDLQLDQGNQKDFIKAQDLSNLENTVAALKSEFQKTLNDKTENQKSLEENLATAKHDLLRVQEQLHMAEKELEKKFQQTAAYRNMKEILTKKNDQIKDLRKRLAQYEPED
UniProt O00754: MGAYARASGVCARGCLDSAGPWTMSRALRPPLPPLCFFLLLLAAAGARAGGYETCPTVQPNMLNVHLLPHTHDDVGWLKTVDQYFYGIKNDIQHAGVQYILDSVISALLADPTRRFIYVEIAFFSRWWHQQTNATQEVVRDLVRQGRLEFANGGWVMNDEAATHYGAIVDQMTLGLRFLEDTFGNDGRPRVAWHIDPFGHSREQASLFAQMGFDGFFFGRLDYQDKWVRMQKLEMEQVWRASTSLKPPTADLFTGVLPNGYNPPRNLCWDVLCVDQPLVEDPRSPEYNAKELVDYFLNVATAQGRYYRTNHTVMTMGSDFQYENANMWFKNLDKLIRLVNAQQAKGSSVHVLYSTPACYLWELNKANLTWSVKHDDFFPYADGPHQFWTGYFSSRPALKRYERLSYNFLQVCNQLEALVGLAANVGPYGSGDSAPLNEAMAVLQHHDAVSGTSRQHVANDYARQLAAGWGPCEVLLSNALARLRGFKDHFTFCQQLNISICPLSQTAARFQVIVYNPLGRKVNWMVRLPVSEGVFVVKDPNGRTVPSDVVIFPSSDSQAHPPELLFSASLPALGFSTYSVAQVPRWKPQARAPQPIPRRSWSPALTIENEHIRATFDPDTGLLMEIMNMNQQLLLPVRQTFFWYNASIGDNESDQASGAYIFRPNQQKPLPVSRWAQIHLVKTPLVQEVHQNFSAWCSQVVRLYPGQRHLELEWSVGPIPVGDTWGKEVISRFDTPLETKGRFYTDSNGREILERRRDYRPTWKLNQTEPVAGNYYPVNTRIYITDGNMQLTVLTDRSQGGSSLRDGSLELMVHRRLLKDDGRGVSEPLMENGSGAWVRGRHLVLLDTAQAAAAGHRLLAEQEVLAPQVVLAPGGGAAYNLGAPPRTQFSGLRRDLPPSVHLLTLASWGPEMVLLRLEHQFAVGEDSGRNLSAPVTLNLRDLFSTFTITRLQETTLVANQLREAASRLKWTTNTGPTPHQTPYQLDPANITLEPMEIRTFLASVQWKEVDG
UniProt P29966: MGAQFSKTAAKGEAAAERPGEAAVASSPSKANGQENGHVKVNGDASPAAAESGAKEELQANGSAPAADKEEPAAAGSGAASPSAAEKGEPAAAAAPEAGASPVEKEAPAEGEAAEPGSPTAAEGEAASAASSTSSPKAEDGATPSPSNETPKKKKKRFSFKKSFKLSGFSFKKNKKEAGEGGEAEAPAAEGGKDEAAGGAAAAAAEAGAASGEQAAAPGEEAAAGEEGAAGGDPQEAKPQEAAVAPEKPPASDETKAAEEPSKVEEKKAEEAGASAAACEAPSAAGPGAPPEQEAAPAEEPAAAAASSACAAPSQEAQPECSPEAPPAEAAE
UniProt P28482, whole entry, looked up: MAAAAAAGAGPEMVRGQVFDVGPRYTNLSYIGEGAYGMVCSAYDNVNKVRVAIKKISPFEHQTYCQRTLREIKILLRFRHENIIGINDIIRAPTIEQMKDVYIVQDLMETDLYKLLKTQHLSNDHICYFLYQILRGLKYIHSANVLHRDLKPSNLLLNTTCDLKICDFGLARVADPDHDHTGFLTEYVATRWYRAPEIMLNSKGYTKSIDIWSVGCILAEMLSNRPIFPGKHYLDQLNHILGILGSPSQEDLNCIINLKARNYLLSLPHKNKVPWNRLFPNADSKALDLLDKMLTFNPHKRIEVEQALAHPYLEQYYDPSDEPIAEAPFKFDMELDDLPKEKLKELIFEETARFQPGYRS

compound: CC1=C(C(CC(=O)N1)C2=CC=C(C=C2)C(F)(F)F)C(=O)NC3=C(C=C4C(=C3)C=NN4)F; assay: log2 fold change, soluble protein after heating vs DMSO (PISA); higher = thermal stabilisation; K562 lysate, 10 uM; active = over 0.2 and 3.5 SD of the protein, either way, in both replicates (recomputed)
How it was run: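 Quantification was by TMTpro 16plex LC-MS/MS with equalised channel sums, applied to the supernatant after 21,000xg for 90 min. Samples were crude K562 extract at 1 mg/mL protein in PBS pH 7.4 with 1 mM MgCl2, treated with 10 μM compound for 30 min, heated for 3 min across 48°C-58°C, pooled and brought to 0.5% NP-40 at 4°C. Values are log-two fold changes in thermal stability relative to solvent controls, from duplicates.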

| Target | log2 fold change |
| --- | --- |
| MAP1S (UniProt Q66K74) | inactive: 0.011 |
| MACROD1 (UniProt Q9BQ69) | inactive: 0.022 |
| MAPK14 (UniProt Q16539) | inactive: -0.14 |
| MAIP1 (UniProt Q8WWC4) | inactive: -0.022 |
| MAP3K20 isoform 2 (UniProt Q9NYL2) | inactive: -0.062 |
| LYAR (UniProt Q9NX58) | inactive: 0.03 |
| MARS (UniProt P56192) | inactive: -0.004 |
| MAP7D1 (UniProt Q3KQU3) | inactive: -0.037 |
| MAP2K2 (UniProt P36507) | inactive: -0.009 |
| LTN1 isoform 3 (UniProt O94822) | inactive: 0.001 |
| MAT2A (UniProt P31153) | inactive: -0.002 |
| LYSMD1 (UniProt Q96S90) | inactive: -0.004 |
| MAPRE2 (UniProt Q15555) | inactive: 0.02 |
| MAP3K7 (UniProt O43318) | inactive: 0.004 |
| LYN (UniProt P07948) | inactive: 0.003 |
| MAP11 (UniProt Q8WVR3) | inactive: 0.105 |

| Target | log2 fold change |
| --- | --- |
| MAP2K4 isoform 2 (UniProt P45985) | inactive: -0.008 |
| MAN2C1 isoform 4 (UniProt Q9NTJ4) | inactive: -0.044 |
| MAN2A2 (UniProt P49641) | inactive: -0.022 |
| LZTFL1 (UniProt Q9NQ48) | inactive: -0.009 |
| MAPK8 isoform 3 (UniProt P45983) | inactive: -0.057 |
| MACF1 isoform 3 (UniProt Q9UPN3) | inactive: 0.001 |
| MAN2A1 (UniProt Q16706) | inactive: -0.001 |
| MAN2B1 (UniProt O00754) | inactive: -0.026 |
| MAP2K1 (UniProt Q02750) | inactive: -0.024 |
| MAP4 isoform 5 (UniProt P27816) | inactive: 0.048 |
| MAD2L2 (UniProt Q9UI95) | inactive: -0.001 |
| MAP3K20 (UniProt Q9NYL2) | inactive: -0.004 |
| MARCKS (UniProt P29966) | inactive: 0.008 |
| MAP4 (UniProt E7EVA0) | inactive: -0.058 |
| MAF1 (UniProt Q9H063) | inactive: 0.006 |
| MAPK1 (UniProt P28482) | inactive: -0.022 |

Part of the list above, bar-delimited:
Target | log2 fold change
MAT2A (UniProt P31153) | inactive: -0.002
LYSMD1 (UniProt Q96S90) | inactive: -0.004
MAPRE2 (UniProt Q15555) | inactive: 0.02
MAP3K7 (UniProt O43318) | inactive: 0.004
LYN (UniProt P07948) | inactive: 0.003
MAP11 (UniProt Q8WVR3) | inactive: 0.105
MAP2K4 isoform 2 (UniProt P45985) | inactive: -0.008
